Laboratory results taken from paper PMC7759028.
No constants are given. Whether binding was seen depends on the method and setting. Some results given as binding are weak or reduced against the parent protein; the word gives no strength. Tags and fused reporters may be left off the sequences shown.

B1: Alexa-flour-PRL (ligand, UniProt P01236 29-227)
chain: LPICPGGAARCQVTLRDLFDRAVVLSHYIHNLSSEMFSEFDKRYTHGRGFITKAINSCHTSSLATPEDKEQAQQMNQKDFLSLIVSILRSWNEPLYHLVTEVRGMQEAPEAILSKAVEIEEQTKRLLEGMELIVSQVHPETKENEIYPVWSGLPSLQMADEESRLSAYYNLLHCLRRDSHKIDNYLKLLKCRIIHNNNC
modifications: Alexa-flour label (fluorescent labelled; site not stated)
B2: prolactin (ligand, UniProt P01236 29-227)
chain: B1 chain
B3: Prolactin antagonist (des one to nine, G129R) (ligand, UniProt P01236 38-227)
chain: RCQVTLRDLFDRAVVLSHYIHNLSSEMFSEFDKRYTHGRGFITKAINSCHTSSLATPEDKEQAQQMNQKDFLSLIVSILRSWNEPLYHLVTEVRGMQEAPEAILSKAVEIEEQTKRLLERMELIVSQVHPETKENEIYPVWSGLPSLQMADEESRLSAYYNLLHCLRRDSHKIDNYLKLLKCRIIHNNNC

What follows are binders tested against T1, prolactin receptor on CHO-PRLR cells (human) (UniProt P16471) (assay: flow cytometry on cells; competitive receptor binding: CHO-PRLR or CHO-GHR cells serum starved 8 h; fluorescent labelled PRL/GH with various concentrations of unlabelled PRL/GH, Ab2β or isotype control, 4°C, 1 h; FACS Calibur; only the binder purified).
T1 sequence: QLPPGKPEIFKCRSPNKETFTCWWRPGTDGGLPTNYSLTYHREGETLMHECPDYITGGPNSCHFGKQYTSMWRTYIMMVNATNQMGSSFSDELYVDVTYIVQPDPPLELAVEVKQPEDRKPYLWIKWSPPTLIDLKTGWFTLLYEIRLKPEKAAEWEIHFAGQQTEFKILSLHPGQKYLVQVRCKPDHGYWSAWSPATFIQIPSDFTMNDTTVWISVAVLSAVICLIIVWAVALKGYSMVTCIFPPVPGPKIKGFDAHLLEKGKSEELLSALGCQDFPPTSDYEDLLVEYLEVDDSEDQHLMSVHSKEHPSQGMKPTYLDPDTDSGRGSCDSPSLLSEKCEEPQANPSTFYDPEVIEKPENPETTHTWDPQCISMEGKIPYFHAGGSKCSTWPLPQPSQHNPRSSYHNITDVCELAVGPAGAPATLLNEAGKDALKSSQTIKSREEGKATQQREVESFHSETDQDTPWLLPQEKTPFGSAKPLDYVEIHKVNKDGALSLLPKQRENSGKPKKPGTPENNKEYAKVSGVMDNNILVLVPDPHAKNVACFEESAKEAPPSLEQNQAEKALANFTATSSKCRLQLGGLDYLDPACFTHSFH

Binder	binding
B1	binds
B2	binds
B3	binds
